From the supplement of paper PMC9015667
The list shows a part of the results. Many values rest on one well or one pass, so single values are uncertain.

Key:
Experiment in all cases: reduction in cell viability relative to untreated/vehicle; higher = more growth inhibition
Details in all cases: 200 nM; 72 h
M229P = test system: M229P (parental melanoma line)
M229R = test system: M229R (matched melanoma line resistant to BRAF inhibitors)
M238P = test system: M238P (parental melanoma line)
M238R = test system: M238R (matched melanoma line resistant to BRAF inhibitors)
M249P = test system: M249P (parental melanoma line)
M249R = test system: M249R (matched melanoma line resistant to BRAF inhibitors)
UACC62P = test system: UACC62P (parental melanoma line)
UACC62R = test system: UACC62R (matched melanoma line resistant to BRAF inhibitors)

Row | SMILES | reduction in cell viability (M229P) | reduction in cell viability (M229R) | reduction in cell viability (M238P) | reduction in cell viability (M238R) | reduction in cell viability (M249P) | reduction in cell viability (M249R) | reduction in cell viability (UACC62P) | reduction in cell viability (UACC62R)
1 | NC(=O)c1cccnc1 [Niacinamide] | < 0% | < 0% | < 0% | < 0% | < 0% | < 0% | < 0% | < 0%
2 | CN1CCCN(C(=O)c2cccc(-c3ccc(/C=C4/C(=O)Nc5ccc(Cl)cc54)o3)c2)CC1 | 11.5% | < 0% | 38.9% | 4.36% | 18.3% | 23.6% | 31.7% | 65.3%
3 | Cc1ccc(NC(=O)c2cccc(C(C)(C)C#N)c2)cc1Nc1ccc2ncn(C)c(=O)c2c1 | 14.7% | < 0% | 25.8% | < 0% | 42.5% | 39.6% | 50.6% | 21.2%
4 | Nc1ccc(S(=O)(=O)Nc2ccccn2)cc1 [Sulfapyridine] | < 0% | < 0% | < 0% | < 0% | < 0% | 15.9% | < 0% | < 0%
5 | Nc1nc(NCCNc2ncc(-n3ccnc3)c(-c3ccc(Cl)cc3Cl)n2)ccc1[N+](=O)[O-] | < 0% | < 0% | < 0% | < 0% | < 0% | 5.83% | < 0% | < 0%
6 | COc1cc(C2Oc3cc([C@H]4Oc5cc(O)cc(O)c5C(=O)[C@@H]4O)ccc3OC2CO)ccc1O (stereo not given in full) [Silybin] | < 0% | 7.41% | < 0% | < 0% | < 0% | < 0% | < 0% | < 0%
7 | C[C@@H](N[C@H]1CCCC[C@@H]1NC(=O)c1ccc(Cl)cc1)c1cccc2ccccc12 [Calhex-231] | < 0% | < 0% | < 0% | < 0% | 0.26% | < 0% | < 0% | 3.6%
8 | CCOC(=O)[C@@H](N)Cc1ccc(-c2cc(O[C@H](c3ccc(Cl)cc3-n3ccc(C)n3)C(F)(F)F)nc(N)n2)cc1 [Telotristat etiprate] | < 0% | < 0% | < 0% | < 0% | < 0% | < 0% | 1.44% | < 0%
9 | OC(CN1CCC(Cc2ccc(F)cc2)CC1)c1ccc(Cl)cc1 (stereo not given) [Eliprodil] | < 0% | < 0% | < 0% | < 0% | < 0% | < 0% | < 0% | < 0%
10 | COc1cc(F)c(F)c(Nc2ccc(I)cc2F)c1NS(=O)(=O)C1(C[C@H](O)CO)CC1 | < 0% | < 0% | < 0% | < 0% | < 0% | < 0% | 7.84% | < 0%
